Values after ≈ are worked out from the molar mass of the structure shown.
Key:
Staphylococcus aureus [1] = assay: microbe, parasite or virus in culture; settings: MW2 CB2201, 24 h
Staphylococcus aureus [2] = assay: microbe, parasite or virus in culture; settings: MW2 CB2202, 120 h

CN[C@H](CC(C)C)C(=O)N[C@H]1C(=O)N[C@@H](CC(N)=O)C(=O)N[C@H]2C(=O)N[C@H]3C(=O)N[C@H](C(=O)N[C@H](C(=O)O)c4cc(O)cc(O)c4-c4cc3ccc4O)[C@H](O)c3ccc(c(Cl)c3)Oc3cc2cc(c3O[C@@H]2O[C@H](CO)[C@@H](O)[C@H](O)[C@H]2O[C@H]2C[C@](C)(N)[C@H](O)[C@H](C)O2)Oc2ccc(cc2Cl)[C@H]1O [VANCOMYCIN]
MIC (Staphylococcus aureus [1]): 3 µg/mL (≈ 2.07 µM) | MIC (Staphylococcus aureus [2]): 3 µg/mL (≈ 2.07 µM)

— ChEMBL document CHEMBL1649459, “Analysis of cell membrane characteristics of in vitro-selected daptomycin-resistant strains of methicillin-resistant Staphylococcus aureus” (2009)
